Source: PMC10163288
The list shows a part of the results.

B1: il10ra_site1_sap_26_mot_HHH_b1_04693_000000238_0001_19_36_H_._HHH_b2_03114_0001_0000100008_0000001_0_0001 (protein)
chain: SSSSSSEIEREVEELLEEARHIPDPDEWFRLIEEAIRLATEAQDPELIKLVMEFLREKIRSSSSS
B2: il10ra_site1_sap_23_mot_HHH_b2_07144_000000289_0001_1_18_H_._HHH_b2_00770_af2_0001_0000100004_0000001_0_0001_af2pred_0001 (protein)
chain: SSSSDVEERVEELEEQVRELLENGNPHEALQVIREIARLAAENNDDEAMRIAVELLKLVFSSSSS
B3: il10ra_site1_sap_22_mot_HHH_b2_00076_000000055_0001_40_55_H_._HHH_b1_06547_af2_0001_0000300016_0000001_0_0001_af2pred_0001 (protein)
chain: SSSSDEEEEFMELFLRAFSIANRLNDEEVRRELHELAILFLEHGDPRVEERIKELLEELRSSSSS
B4: il10ra_site1_normal_mot_8756ee2cf497b5429c717dfc0c0bcfd6_0001_000000186_0001_1_13_H_._HHH_b2_03728_af2_0001_0000500030_0000001_1_af2pred_0001 (protein)
chain: SSSSSSSEVVKLIREIAELLREGNPEEAQELIEEAKKLAEELNNELARAILEFLERHANSSSSSS
B5: il10ra_site1_normal_mot_67493b814c2a7b5c52b954d5d9494194_0001_af2_000000062_0001_34_48_H_._HHH_b2_07965_0001_0000300017_0000001_0_af2pred_0001 (protein)
chain: SSSSDEKEKKARLALRLARAALEAGNPRAARINLRWAEKLARELGDEELLEQIEKLLEELNSSSS
B6: il10ra_site1_normal_mot_HHH_b1_05879_000000258_0001_1_19_H_._HHH_b2_00580_0001_0000100016_0000002_0 (protein)
chain: SSSSDTLEWSVRFLLEEVRRLLELGNEEQAEELLRKLLELLEEANDEELTREVQELLEELSSSSS
B7: il10ra_site1_normal_mot_HHH_b2_04680_000000215_0001_1_16_H_._HHH_b2_01626_af2_0001_0000100002_0000001_1 (protein)
chain: SSSSSSDEEIREAYRLVREAFEVDEEERERLLEEARELAERANDFSTIFAIRRALKSLESSSSSS
B8: il10ra_site1_sap_14_mot_HHH_b2_07006_000000108_0001_1_19_H_._HHH_b2_02668_0001_0000100011_0000001_0_0001_af2pred_0001 (protein)
chain: SSSSSRDEEFIRRALRFAKWVEEAGDPEAARFILEAALEIARRANDEEAQEELEELLKELSSSSS
B9: il10ra_site1_normal_mot_HHH_b1_05937_af2_000000262_0001_20_37_H_._HHH_b1_08754_af2_0001_0000100002_0000001_0_af2pred_0001 (protein)
chain: SSSSDDEEHRVLRLIAEAVRLLLNGNPEEAREVIEEAEELVRELGDERLREALEIVERALKSSSS
B10: il10ra_site1_sap_25_mot_HHH_b2_05323_000000159_0001_1_18_H_._HHH_b1_08298_af2_0001_0000500034_0000001_0_0001 (protein)
chain: SSSSDEELQEAFELLREAVEALLDGNPEEAEKLLEEARKLAEEAGNRLLRWQIEWLLEKVRSSSS
B11: il10ra_site1_sap_17_mot_HHH_b1_01821_000000158_0001_23_39_H_._2fd006765095e2299ff75ffcaa73beff_0001_0001_0000100003_0000002_0_0001 (protein)
chain: SSSSNEWYEEVKRLIEEAVKALRNGDEELLEELLKRLEELAEETNTPSVEFAVRLLERARGSSSS
B12: il10ra_site1_sap_17_mot_HHH_b1_08477_000000091_0001_40_57_H_._HHH_b1_06378_0001_0000500043_0000001_0_0001 (protein)
chain: SSSREEVQEIVEEAKKLAEEKNDEELERYVEIAKHFVEAALRQGDEELAHMVAEFLLRAVRDASS
B13: il10ra_site1_normal_mot_HHH_b1_01011_000000096_0001_1_19_H_._HHH_b1_06988_0001_0000400011_0000001_0_af2pred_0001 (protein)
chain: SSSSDRDEELLRLAIRFVKRLLEDGDPEAAKSTVKAALELAKRAGDEELLEELEKLLEELSSSSS
B14: il10ra_site1_normal_mot_HHH_b2_00277_af2_000000172_0001_1_17_H_._HHH_b2_01938_0001_0000200015_0000001_0 (protein)
chain: SSSSSDVEERVEELLEEAKEVDDEEEFRELLREAFLLAARLGDDRLAHEIIRLYAEFHQKSSSSS
B15: il10ra_site1_sap_26_mot_HHH_b1_05056_000000217_0001_1_20_H_._HHH_b2_06767_0001_0000300019_0000002_0_0001 (protein)
chain: SSSSDTQEVMELIKEAIQLLQNGNPEEAKKVLEEAKEIAEELNNWVALFAVEHLLRDIEERSSSS
B16: il10ra_site1_normal_mot_HHH_b2_02757_000000230_0001_1_19_H_._HHH_b1_04215_af2_0001_0000300013_0000002_0 (protein)
chain: SSSSDEELEKLERQLEELIEEGDRERFFRLVQELLRLAFRLSDPEVIQRVWELIKEFKELASSSS
B17: il10ra_site1_sap_13_mot_HHH_b1_02881_000000027_0001_1_20_H_._HHH_b1_05977_0001_0000300025_0000001_0_0001 (protein)
chain: SSSSSEEERYLRLTLRFIEWALEAGDEEAVRIALHVVERLAKEANDEEIEEEVERLQELLNSSSS
B18: il10ra_site1_sap_16_mot_HHH_b1_07527_000000076_0001_1_15_H_._HHH_b1_02962_0001_0000100003_0000001_1_0001 (protein)
chain: SSSSSSTEEEIERIVRELAEEFGLSEDAIRAVELAAKRNGASEREIEMMIRFQARAMSSSSSSSS
B19: il10ra_site1_normal_mot_HHH_b1_03065_af2_000000286_0001_1_17_H_._HHH_b1_01527_af2_0001_0000200006_0000002_0 (protein)
chain: SSSSTDEEYERIKELIKEANELQRRDPEEAEEVLREAKELAEELNNQALRFSIEHALRLVSSSSS
B20: il10ra_site1_normal_mot_HHH_b1_02997_000000220_0001_39_52_H_._HHH_b1_05536_0001_0000100001_0000001_1_af2pred_0001 (protein)
chain: SSSSDEEEAREALKLLEEAQKIEDPEEVRELLEEALELAEKANNEVLKRAIEERLRALKKSSSSS
B21: il10ra_site1_normal_mot_HHH_b1_06994_000000193_0001_40_55_H_._HHH_b2_02682_0001_0000300045_0000001_0 (protein)
chain: SSSSDLEELVRAAARLAEQALKAGDPRAARLLLRALEQALKRLGNPELLEEVEKLLEEIENSSSS
B22: il10ra_site1_sap_23_mot_HHH_b1_06128_000000102_0001_1_20_H_._HHH_b1_07535_0001_0000600011_0000002_0_0001 (protein)
chain: SSSSDEASRRIYELLREAAKLDHEGNPEEAQRVLEEALEIAEEGNNRVLAALIRWLIERIGSSSS
B23: il10ra_site1_sap_22_mot_HHH_b1_02397_af2_000000085_0001_39_57_H_._HHH_b2_06644_0001_0000100002_0000001_0_0001 (protein)
chain: SSSSDLEEYARRAAKFIRALLEAGNPEAAKSLLRALEDLAEKHNDPELREIVEELEELLGSSSSS
B24: il10ra_site1_normal_mot_HHH_b2_02497_000000220_0001_1_20_H_._HHH_b2_06953_af2_0001_0000400026_0000001_0 (protein)
chain: SSSSDEEEELRELIEEIEELQKEGDVDEFYKLARRVIEFAAEANNEELLRHLMEFLAHLFSSSSS
B25: il10ra_site1_sap_20_mot_HHH_b1_03390_000000031_0001_39_52_H_._HHH_b2_07573_af2_0001_0000400009_0000001_0_0001 (protein)
chain: SSSSDEEQEEILELLQEAFRLALRGNPEEARELVKRALELAEELGDERAAEMAEELLKSLSSSSS
B26: il10ra_site1_normal_mot_HHH_b2_00033_000000036_0001_41_54_H_._HHH_b1_00510_af2_0001_0001000017_0000002_0 (protein)
chain: SSSSSELEEELRELEEKAKELLERGDPEKAFQVLWRAAKVAAELNDKEALRELAELLREVFSSSS
B27: il10ra_site1_normal_mot_HHH_b1_08477_000000091_0001_40_57_H_._HHH_b1_06384_af2_0001_0000200009_0000001_0 (protein)
chain: SSSSDEEEKVKQALRFAKALAESGDEEAARLLLRQLASALEELNNPELLEEVEKLLEELGSSSSS
B28: il10ra_site1_normal_mot_HHH_b2_03220_af2_000000223_0001_23_40_H_._HHH_b2_00272_0001_0000200016_0000001_0 (protein)
chain: SSSSSTESEEVWELIREALELRAEGDPEEARRVLEEAEEIAEELNNFTFRFAIELLLRQLSSSSS
B29: il10ra_site1_normal_mot_HHH_b1_05185_000000011_0001_22_39_H_._HHH_b1_03083_0001_0000100002_0000001_1_af2pred_0001 (protein)
chain: SSSSDFEEAVELALKFIEHLIKRGSREAAKLLLRAAKDLAKRGNNEELEERVEELLEELRSSSSS
B30: il10ra_site1_sap_25_mot_HHH_b2_02497_000000141_0001_1_20_H_._HHH_b2_04390_0001_0000100001_0000001_1_0001 (protein)
chain: SSSSDRREIYELSRRVAELISDGNHEEAEKLLEEARRLVEELGDILLRFIVEFLEEDIEKTSSSS
B31: il10ra_site1_normal_mot_HHH_b2_06954_000000276_0001_1_20_H_._6c810305ec7c73c4190ef0a942592ab6_0001_1_0001_0000300002_0000001_0 (protein)
chain: DELEELARLVREDPNDEEAIQELALVLAHLFARDPDVVHLAFLLAEALREGDPEKLEEIAEEILK
B32: il10ra_site1_normal_mot_HHH_b2_06979_000000158_0001_42_57_H_._HHH_b1_03926_0001_0000400045_0000001_0 (protein)
chain: SSSSDVSQRIAELLRRAAELLNEGNPEEAEELVEEALELAQENNNELLAINAEYLLRDVRSSSSS
B33: il10ra_site1_sap_21_mot_HHH_b2_04680_000000215_0001_1_16_H_._HHH_b2_03705_0001_0000100007_0000002_0_0001 (protein)
chain: SSSSSEEREELYELSREAAELAARGDPEEAQKVLEEAHELAEEANNRLFLHVLRFLLRNISSSSS
B34: il10ra_site1_normal_mot_HHH_b1_05056_000000217_0001_1_20_H_._HHH_b2_00498_0001_0000300036_0000001_1 (protein)
chain: SSSSDEEREEVEELLEEAEQIEDPRERARVLQEATHIALEAGDPEALRLVWRVVKELFRRSSSSS
B35: il10ra_site1_sap_15_mot_HHH_b2_02736_000000092_0001_22_38_H_._HHH_b2_05213_af2_0001_0000300020_0000002_0_0001 (protein)
chain: SSSSDAELSERVWELLRRALHIDDPEERREVLEEAEELAREAGNRVLLIVIEFLIKDLEESSSSS
B36: il10ra_site1_sap_21_mot_HHH_b2_07488_000000216_0001_1_17_H_._31920f510a6589983022af97b9178b34_0001_1_af2_0001_0000400004_0000001_0_0001_af2pred_0001 (protein)
chain: SSSSDRLEEALKRTEEELKFAEEHGDERAARLLAKAAADLARQLGDEERLEKIEKILEELSSSSS
B37: il10ra_site1_sap_19_mot_HHH_b1_01585_000000217_0001_1_18_H_._HHH_b1_05870_af2_0001_0000200018_0000002_0_0001 (protein)
chain: SSSSSRAEKVREILEEVVELQRQGDKEEAERLLEELLEELEELGDVNSLVNVEYLLRAVRKSSSS

Target: il10ra, Q13651
Assay: yeast display titration

Apparent Kd, inactive:
B1 no binding seen
B2 no binding seen
B3 no binding seen
B4 no binding seen
B5 no binding seen
B6 no binding seen
B7 no binding seen
B8 no binding seen
B9 no binding seen
B10 no binding seen
B11 no binding seen
B12 no binding seen
B13 > 384 nM
B14 no binding seen
B15 no binding seen
B16 no binding seen
B17 no binding seen
B18 no binding seen
B19 no binding seen
B20 no binding seen
B21 no binding seen
B22 no binding seen
B23 no binding seen
B24 no binding seen
B25 no binding seen
B26 no binding seen
B27 no binding seen
B28 no binding seen
B29 no binding seen
B30 no binding seen
B31 no binding seen
B32 no binding seen
B33 no binding seen
B34 no binding seen
B35 no binding seen
B36 no binding seen
B37 no binding seen

2 successive entries already listed, quoted:
Apparent Kd, inactive:
B25 no binding seen
B26 no binding seen
